PubChem BioAssay AID504774 – Drosophila RNAi Screening Center | 2011

- Purpose: 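Knock-downs that shift viability of MMS-exposed cells relative to untreated ones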 (primary screen)
- Cell system: Drosophila Kc167 cells
- Knock-down reagent: long dsRNA against Drosophila genes, about 0.25 µg dsRNA per well
- Timing: about 6 days: 3 days knock-down, then 3 days with or without MMS
- Treatment: methyl methanesulphonate 0.004% (w/v) for 3 days after knock-down
- Detection: 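Viability in wells given MMS, read as ATP luminescence, normalised by quantiles plate by plate and averaged across replicates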
- Reading the numbers: mean viability with MMS and viability with MMS: higher = more surviving cells after MMS
The screen tested about 23,000 reagents; this is a random part of those with a known target gene and a result. 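Values are quantile-normalised luminescence on an arbitrary scale; higher means more cells surviving MMS.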 The numbers tell different reagents against one gene apart.

gene	reagent no.	mean viability with MMS	viability with MMS, replicate 1	viability with MMS, replicate 2
dlt (GeneID 46719)	1	3.52e6	4.00e6	3.99e6
CG1722 (GeneID 33101)	1	3.48e6	3.93e6	3.99e6
EMC2B (GeneID 42045)	1	3.53e6	3.98e6	4.04e6
Rab7 (GeneID 42841)	1	3.49e6	3.97e6	3.94e6
Zasp52 (GeneID 36740)	1	3.40e6	3.87e6	3.79e6
Zasp52 (GeneID 36740)	2	3.48e6	4.02e6	3.84e6
OdsH (GeneID 32758)	1	3.54e6	3.93e6	4.11e6
CG13460 (GeneID 39638)	1	3.63e6	4.15e6	4.06e6
CG31548 (GeneID 318794)	1	3.46e6	3.83e6	4.06e6
CG6843 (GeneID 40062)	1	3.38e6	3.74e6	3.85e6
CG14805 (GeneID 31146)	1	3.49e6	4.10e6	3.83e6
RabX1 (GeneID 44172)	1	3.64e6	3.98e6	4.27e6
Sar1 (GeneID 42615)	1	3.54e6	3.98e6	4.05e6
Sar1 (GeneID 42615)	2	3.52e6	4.00e6	4.00e6
olf413 (GeneID 40453)	1	4.02e6	4.83e6	4.36e6
olf413 (GeneID 40453)	2	3.57e6	4.75e6	4.26e6
olf413 (GeneID 40453)	3	3.69e6	4.14e6	4.15e6
olf413 (GeneID 40453)	4	3.62e6	3.71e6	4.18e6
CG11626 (GeneID 42323)	1	3.55e6	3.88e6	4.17e6
CG31326 (GeneID 41728)	1	3.39e6	3.83e6	3.82e6
fln (GeneID 40185)	1	3.61e6	4.10e6	4.08e6
Acsx4 (GeneID 42355)	1	3.36e6	3.80e6	3.86e6
CG4860 (GeneID 41480)	1	3.69e6	4.08e6	4.30e6
CG4860 (GeneID 41480)	2	3.36e6	3.84e6	3.88e6
CG33301 (GeneID 2768917)	1	3.44e6	3.82e6	3.96e6
CG31988 (GeneID 326182)	1	3.61e6	4.13e6	4.02e6
CG10357 (GeneID 38435)	1	3.60e6	4.07e6	4.07e6
CG9119 (GeneID 38124)	1	3.56e6	4.08e6	3.99e6
CG30373 (GeneID 246573)	1	3.46e6	3.91e6	3.90e6
swi2 (GeneID 37010)	1	3.49e6	4.03e6	3.87e6
Pcp (GeneID 33985)	1	3.63e6	4.16e6	4.04e6
CG4004 (GeneID 32226)	1	3.25e6	2.81e6	4.21e6
CG4004 (GeneID 32226)	2	3.59e6	4.14e6	3.98e6
CG33673 (GeneID 3772423)	1	3.43e6	3.86e6	3.96e6
zuc (GeneID 34609)	1	4.05e6	4.23e6	4.98e6
dpn (GeneID 35800)	1	3.48e6	3.98e6	3.94e6
CG14262 (GeneID 43286)	1	3.55e6	4.02e6	4.01e6
Ssrp (GeneID 37767)	1	3.18e6	3.74e6	2.74e6

11 entries from above, set out differently.
| gene | reagent no. | mean viability with MMS | viability with MMS, replicate 1 | viability with MMS, replicate 2 |
| --- | --- | --- | --- | --- |
| CG4860 (GeneID 41480) | 1 | 3.69e6 | 4.08e6 | 4.30e6 |
| CG4860 (GeneID 41480) | 2 | 3.36e6 | 3.84e6 | 3.88e6 |
| CG33301 (GeneID 2768917) | 1 | 3.44e6 | 3.82e6 | 3.96e6 |
| CG31988 (GeneID 326182) | 1 | 3.61e6 | 4.13e6 | 4.02e6 |
| CG10357 (GeneID 38435) | 1 | 3.60e6 | 4.07e6 | 4.07e6 |
| CG9119 (GeneID 38124) | 1 | 3.56e6 | 4.08e6 | 3.99e6 |
| CG30373 (GeneID 246573) | 1 | 3.46e6 | 3.91e6 | 3.90e6 |
| swi2 (GeneID 37010) | 1 | 3.49e6 | 4.03e6 | 3.87e6 |
| Pcp (GeneID 33985) | 1 | 3.63e6 | 4.16e6 | 4.04e6 |
| CG4004 (GeneID 32226) | 1 | 3.25e6 | 2.81e6 | 4.21e6 |
| CG4004 (GeneID 32226) | 2 | 3.59e6 | 4.14e6 | 3.98e6 |

The listing continues.
gene	reagent no.	mean viability with MMS	viability with MMS, replicate 1	viability with MMS, replicate 2
Egm (GeneID 36242)	1	3.73e6	4.22e6	4.24e6
Egm (GeneID 36242)	2	3.25e6	3.75e6	3.88e6
Rox8 (GeneID 42848)	1	3.53e6	4.02e6	3.96e6
Arv1 (GeneID 318031)	1	3.53e6	3.97e6	4.04e6
CG5078 (GeneID 40276)	1	3.59e6	4.09e6	4.04e6
CG12535 (GeneID 31311)	1	3.48e6	3.92e6	4.00e6
CG33271 (GeneID 2768972)	1	3.45e6	3.81e6	4.00e6
CG7631 (GeneID 34919)	1	3.59e6	4.01e6	4.13e6
EMC7 (GeneID 36767)	1	3.72e6	4.13e6	4.27e6
Mrp5 (GeneID 42362)	1	3.66e6	4.18e6	4.12e6
Mrp5 (GeneID 42362)	2	3.67e6	4.29e6	4.03e6
CG10948 (GeneID 39459)	1	3.63e6	4.21e6	3.96e6
Mhcl (GeneID 41955)	1	3.42e6	3.95e6	3.81e6
Mhcl (GeneID 41955)	2	3.46e6	3.97e6	3.85e6
Mhcl (GeneID 41955)	3	3.50e6	4.09e6	3.86e6
CG3770 (GeneID 37991)	1	3.44e6	3.89e6	3.86e6
Lim3 (GeneID 35184)	1	3.75e6	4.23e6	4.22e6
Lim3 (GeneID 35184)	2	3.27e6	3.62e6	3.80e6
Lim3 (GeneID 35184)	3	2.81e6	3.76e6	3.74e6
Lim3 (GeneID 35184)	4	2.90e6	3.68e6	3.71e6
Lim3 (GeneID 35184)	5	3.75e6	4.40e6	4.09e6
Alg12 (GeneID 41191)	1	3.51e6	4.04e6	3.93e6
l(1)G0289 (GeneID 31964)	1	3.63e6	4.46e6	3.96e6
Prp8 (GeneID 36304)	1	3.13e6	3.62e6	3.68e6
CG2061 (GeneID 32042)	1	3.88e6	4.58e6	4.34e6
Myo95E (GeneID 2768680)	1	3.48e6	3.98e6	3.92e6
sip2 (GeneID 33979)	1	3.48e6	3.93e6	3.96e6
CG8132 (GeneID 41121)	1	3.77e6	4.13e6	4.25e6
Fam92 (GeneID 34654)	1	3.55e6	4.03e6	4.04e6
Dlic (GeneID 32057)	1	3.45e6	3.67e6	3.85e6
